Values from PubChem BioAssay AID1259314 (Drosophila RNAi Screening Center, 2017).
The deposit covers about 3,100 reagents; below is a part drawn at random. 289 of all reagents (9.3%) count as active. 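Active includes both higher and lower ATP than plate average; check the z-score sign for direction.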 Entries without a mark were called inactive. Names joined by + are all predicted targets of the reagent. No sequences are given here. Not stated in the record: the amount of reagent.

- Screen: 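Transmembrane protein genes affecting ATP after manganese overload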 (primary screen)
- Cell system: Drosophila S2R+ cells
- Knock-down reagent: long dsRNA against Drosophila genes
- Time to read-out: 5 days (4 days knock-down, then 1 day metal exposure)
- Conditions: manganese chloride added to 15 mM for 24 hours
- Read-out: 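Luciferase ATP signal used as a proxy for viable cell number, reported as one averaged z-score per dsRNA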
- Scale: mean ATP z-score: higher = more ATP than the plate average, more viable cells under manganese
- Hit rule: 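a mean ATP z-score past 1.5 in either direction is called active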
- Meaning of the calls: active = strong ATP change, up or down; inactive = no strong ATP change

no.	target gene	DRSC id	mean ATP z-score
1	CG2930	DRSC17730	1.16
2	CG2930	DRSC26303	-1.49
3	Nct	DRSC16172	0.0774
4	Nct	DRSC39647	-0.326
5	SP1173	DRSC11277	-0.165
6	Lgr4	DRSC18970	-0.79
7	Lgr4	DRSC19884	0.223
8	Lgr4	DRSC24434	-0.727
9	btl	DRSC11331	-0.791
10	btl	DRSC36653	0.14
11	btl	DRSC36654	-0.319
12	CG4615	DRSC17491	1.26
13	CG4615	DRSC18376	-1.39
14	CG4615	DRSC26722	1.85 (active)
15	CG3164	DRSC00572	-0.828
16	CG14223	DRSC24816	-1.29
17	CG14223	DRSC39909	1.2
18	Ir56c	DRSC06544	0.0138
19	Ir56c	DRSC26227	0.642
20	asRNA:CR43429 + Impbeta11	DRSC07525	0.742
21	asRNA:CR43429 + Impbeta11	DRSC39687	-0.183
22	CG31262	DRSC13216	-0.359
23	CG31262	DRSC39797	-0.304
24	Ddr	DRSC02150	0.211
25	Ddr	DRSC03229	0.31
26	Ddr	DRSC22818	0.137
27	pain	DRSC04273	0.205
28	pain	DRSC28351	0.168
29	ACXC	DRSC00846	0.95
30	Oatp58Da	DRSC04365	-1.52 (active)
31	Oatp58Da	DRSC25499	-0.19
32	Ulp1	DRSC19339	-1.95 (active)
33	Ulp1	DRSC39704	-1.72 (active)
34	Rh50	DRSC08692	1.86 (active)
35	sut3	DRSC07702	2.03 (active)
36	sut3	DRSC24322	-0.0714
37	Gr33a	DRSC02589	-0.218
38	Gr33a	DRSC39756	0.0951
39	CG42818	DRSC01963	0.117
40	pippin	DRSC04489	-0.739
41	pippin	DRSC39700	1.43
42	CG42816	DRSC11230	-1.05
43	Amnionless	DRSC00317	0.14
44	Ir60a	DRSC04212	0.289
45	Ir60a	DRSC39476	0.619
46	dmGlut	DRSC02835	-0.222
47	dmGlut	DRSC25891	1.07
48	CarT	DRSC03196	3.98 (active)
49	CarT	DRSC27070	0.536
50	Miro	DRSC15795	-0.16
51	Miro	DRSC39610	-0.645
52	Cnx99A	DRSC25426	3.7 (active)
53	CG1801	DRSC20556	0.0139
54	ptc	DRSC05117	-0.455
55	ptc	DRSC07669	-0.743
56	Srg2	DRSC10681	-0.627
57	Srg2	DRSC24667	0.0814
58	Osi10b	DRSC12279	-0.885
59	Osi10b	DRSC39619	-1.06
60	Cals	DRSC17196	-0.15
61	Cals	DRSC21661	-0.146
62	CG13796	DRSC24686	-0.802
63	Ac76E	DRSC09642	-1.42
64	Ac76E	DRSC09662	2.17 (active)
65	Arts + Apl	DRSC10349	1.68 (active)
66	CG3216	DRSC04347	-0.614
67	CG3216	DRSC24945	-0.378
68	kek2	DRSC03552	0.296
69	kek2	DRSC26189	-0.53
70	Or19a	DRSC20684	-0.144
71	CG32986	DRSC02509	0.567
72	CG32986	DRSC39699	0.569
73	Sys1	DRSC14372	1.15
74	Remo	DRSC19710	-0.284
75	CG6978	DRSC18409	-0.204
76	CG6978	DRSC39567	-0.0542
77	Nup93-1	DRSC19344	1.25
78	Nup93-1	DRSC39780	2.34 (active)
79	ATP8A	DRSC06643	-1.23
80	ATP8A	DRSC06644	-1.59 (active)
81	GrlHz	DRSC04424	-0.392
82	GrlHz	DRSC39675	0.334
83	brv1	DRSC11076	-0.515
84	CG7806	DRSC03071	0.683
85	CG7806	DRSC39811	-0.0612

8 entries from above in another layout:
{"target gene":"kek2","DRSC id":"DRSC26189","mean ATP z-score":-0.53}
{"target gene":"Or19a","DRSC id":"DRSC20684","mean ATP z-score":-0.144}
{"target gene":"CG32986","DRSC id":"DRSC02509","mean ATP z-score":0.567}
{"target gene":"CG32986","DRSC id":"DRSC39699","mean ATP z-score":0.569}
{"target gene":"Sys1","DRSC id":"DRSC14372","mean ATP z-score":1.15}
{"target gene":"Remo","DRSC id":"DRSC19710","mean ATP z-score":-0.284}
{"target gene":"CG6978","DRSC id":"DRSC18409","mean ATP z-score":-0.204}
{"target gene":"CG6978","DRSC id":"DRSC39567","mean ATP z-score":-0.0542}

The list goes on:
no.	target gene	DRSC id	mean ATP z-score
86	Lar	DRSC01707	0.322
87	Lar	DRSC03361	4.01 (active)
88	Lar	DRSC36994	-0.333
89	5-HT1A	DRSC05030	-1.14
90	5-HT1A	DRSC26404	0.665
91	Cln7	DRSC11005	-0.0802
92	PGRP-LF + UGP	DRSC10418	-0.961
93	Sur-8	DRSC15794	-0.392
94	CG9903	DRSC20213	-0.259
95	CG9903	DRSC39657	0.0208
96	ppk7	DRSC03236	-0.222
97	Gr23a	DRSC00410	-0.852
98	Gr23a	DRSC27488	0.617
99	Tsp29Fb	DRSC03233	-1.49
100	Tsp29Fb	DRSC26296	-0.348
101	COX6AL2	DRSC10082	-1.23
102	COX6AL2	DRSC39542	0.0718
103	Gr59e	DRSC04276	0.269
104	Gr59e	DRSC39732	-1.42
105	Gr98b	DRSC21675	-0.151
106	Gr98b	DRSC39891	-0.664
107	PIG-C	DRSC08241	-0.00968
108	CG33310	DRSC01897	-0.56
109	CG33310	DRSC24914	-0.15
110	CG15553	DRSC15091	-0.0149
111	CG15553	DRSC39697	-0.185
112	CG4301	DRSC19886	-0.0181
113	CG4301	DRSC39420	0.108
114	CG31431	DRSC14589	-0.367
115	CG31431	DRSC39614	-0.804
116	Cftr	DRSC15872	-1.57 (active)
117	Cftr	DRSC24655	0.0456
118	trn	DRSC11407	-0.532
119	CG16723	DRSC15138	0.665
120	CG16723	DRSC28144	1.59 (active)
121	Lcch3	DRSC22175	-0.29
122	CG8916	DRSC20120	-0.0548
123	CG8916	DRSC39685	0.442
124	CG7912	DRSC16343	-0.858
125	Ent3	DRSC09822	-0.604
126	Ent3	DRSC29706	-0.481
127	ATPsynbetaL	DRSC10503	-0.842
128	ATPsynbetaL	DRSC24354	-0.22
129	Eph	DRSC17164	-0.327
130	Eph	DRSC36767	0.329
131	Eph	DRSC36768	0.298
132	Dolk	DRSC07143	-0.462
133	Dolk	DRSC39578	0.548
134	CG14439	DRSC17931	-0.555
135	CG14439	DRSC39551	-0.521
136	Arms	DRSC03856	-0.203
137	Arms	DRSC04052	-1.4
138	Or92a	DRSC16771	0.639
139	Delta	DRSC16648	-0.0813
140	Delta	DRSC24112	-0.659
